± gives the standard deviation of the averaged measurements. This is one part of the list.
Compound: Nc1nc2c(ncn2[C@@H]2O[C@H](COP(=O)(O)OP(=O)(O)OP(=O)(O)O)[C@@H](O)[C@H]2O)c(=O)[nH]1 [guanosine triphosphate]
Assay: NP40-soluble protein abundance relative to vehicle (solubility fold change) (ratio); higher = more soluble protein in presence of GTP
Outline: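 Data come from three independent experiments in which Dounce-homogenised Jurkat crude lysate was treated at eight concentrations from 0.1 to 10 mM. Treatment ran 10 min at room temperature and then 3 min at 37 °C, after which 0.8% NP40 and benzonase were added for 60 min at 4 °C before ultracentrifugation. The supernatant underwent TMT labelling and LC-MS/MS, and vsn-normalised intensities were expressed as fold change against the detergent-processed vehicle in each replicate.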

By UniProt entry, the sequences of proteins in these tests, tags left out. Where a name states a change or a piece, a line headed by the entry shows the natural chain unless it says otherwise.
UniProt Q9UBQ5, whole entry: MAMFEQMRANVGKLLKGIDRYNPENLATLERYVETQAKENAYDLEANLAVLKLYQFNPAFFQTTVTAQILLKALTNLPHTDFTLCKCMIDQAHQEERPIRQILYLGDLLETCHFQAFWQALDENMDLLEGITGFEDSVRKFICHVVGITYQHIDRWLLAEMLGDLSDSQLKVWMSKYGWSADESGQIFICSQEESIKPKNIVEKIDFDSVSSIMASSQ
UniProt Q8TF05: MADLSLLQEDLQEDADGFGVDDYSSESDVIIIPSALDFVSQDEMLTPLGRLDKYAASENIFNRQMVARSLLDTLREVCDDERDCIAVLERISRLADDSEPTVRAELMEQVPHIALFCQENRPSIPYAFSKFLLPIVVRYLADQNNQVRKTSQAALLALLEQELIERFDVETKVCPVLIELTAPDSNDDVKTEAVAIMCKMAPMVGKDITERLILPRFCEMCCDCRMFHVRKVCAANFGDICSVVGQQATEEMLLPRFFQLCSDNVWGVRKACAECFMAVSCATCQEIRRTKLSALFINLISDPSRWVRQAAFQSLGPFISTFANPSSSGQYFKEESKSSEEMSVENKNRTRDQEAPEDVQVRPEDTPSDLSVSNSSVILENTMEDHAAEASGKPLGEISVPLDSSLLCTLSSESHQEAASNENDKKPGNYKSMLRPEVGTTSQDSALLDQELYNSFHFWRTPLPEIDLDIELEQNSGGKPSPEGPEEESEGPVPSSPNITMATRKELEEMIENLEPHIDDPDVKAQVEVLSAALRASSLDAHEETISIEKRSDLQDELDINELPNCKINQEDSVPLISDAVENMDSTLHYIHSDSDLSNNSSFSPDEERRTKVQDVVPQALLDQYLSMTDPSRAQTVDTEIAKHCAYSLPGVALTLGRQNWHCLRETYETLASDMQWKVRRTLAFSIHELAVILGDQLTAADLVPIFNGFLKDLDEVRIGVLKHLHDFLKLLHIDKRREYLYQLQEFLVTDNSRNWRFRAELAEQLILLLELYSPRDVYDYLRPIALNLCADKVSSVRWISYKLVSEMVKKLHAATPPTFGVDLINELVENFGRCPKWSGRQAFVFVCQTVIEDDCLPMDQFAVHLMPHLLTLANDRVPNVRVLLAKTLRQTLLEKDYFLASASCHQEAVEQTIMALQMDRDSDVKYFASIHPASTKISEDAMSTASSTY
UniProt Q9BV68: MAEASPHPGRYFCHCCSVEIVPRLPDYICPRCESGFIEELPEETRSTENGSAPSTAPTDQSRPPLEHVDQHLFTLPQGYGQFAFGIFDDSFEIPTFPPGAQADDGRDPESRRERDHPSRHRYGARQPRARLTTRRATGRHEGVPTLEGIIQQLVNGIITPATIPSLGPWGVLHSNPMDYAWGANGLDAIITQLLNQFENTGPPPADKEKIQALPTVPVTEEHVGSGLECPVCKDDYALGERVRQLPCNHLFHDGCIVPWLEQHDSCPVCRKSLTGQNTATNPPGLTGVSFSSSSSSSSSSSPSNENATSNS
UniProt Q6NW29: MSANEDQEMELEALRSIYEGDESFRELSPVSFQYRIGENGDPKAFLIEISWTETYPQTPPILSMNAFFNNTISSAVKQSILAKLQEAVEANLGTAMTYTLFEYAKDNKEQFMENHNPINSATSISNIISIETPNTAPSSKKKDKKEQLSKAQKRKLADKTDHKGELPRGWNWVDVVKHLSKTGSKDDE
UniProt Q9Y4D8: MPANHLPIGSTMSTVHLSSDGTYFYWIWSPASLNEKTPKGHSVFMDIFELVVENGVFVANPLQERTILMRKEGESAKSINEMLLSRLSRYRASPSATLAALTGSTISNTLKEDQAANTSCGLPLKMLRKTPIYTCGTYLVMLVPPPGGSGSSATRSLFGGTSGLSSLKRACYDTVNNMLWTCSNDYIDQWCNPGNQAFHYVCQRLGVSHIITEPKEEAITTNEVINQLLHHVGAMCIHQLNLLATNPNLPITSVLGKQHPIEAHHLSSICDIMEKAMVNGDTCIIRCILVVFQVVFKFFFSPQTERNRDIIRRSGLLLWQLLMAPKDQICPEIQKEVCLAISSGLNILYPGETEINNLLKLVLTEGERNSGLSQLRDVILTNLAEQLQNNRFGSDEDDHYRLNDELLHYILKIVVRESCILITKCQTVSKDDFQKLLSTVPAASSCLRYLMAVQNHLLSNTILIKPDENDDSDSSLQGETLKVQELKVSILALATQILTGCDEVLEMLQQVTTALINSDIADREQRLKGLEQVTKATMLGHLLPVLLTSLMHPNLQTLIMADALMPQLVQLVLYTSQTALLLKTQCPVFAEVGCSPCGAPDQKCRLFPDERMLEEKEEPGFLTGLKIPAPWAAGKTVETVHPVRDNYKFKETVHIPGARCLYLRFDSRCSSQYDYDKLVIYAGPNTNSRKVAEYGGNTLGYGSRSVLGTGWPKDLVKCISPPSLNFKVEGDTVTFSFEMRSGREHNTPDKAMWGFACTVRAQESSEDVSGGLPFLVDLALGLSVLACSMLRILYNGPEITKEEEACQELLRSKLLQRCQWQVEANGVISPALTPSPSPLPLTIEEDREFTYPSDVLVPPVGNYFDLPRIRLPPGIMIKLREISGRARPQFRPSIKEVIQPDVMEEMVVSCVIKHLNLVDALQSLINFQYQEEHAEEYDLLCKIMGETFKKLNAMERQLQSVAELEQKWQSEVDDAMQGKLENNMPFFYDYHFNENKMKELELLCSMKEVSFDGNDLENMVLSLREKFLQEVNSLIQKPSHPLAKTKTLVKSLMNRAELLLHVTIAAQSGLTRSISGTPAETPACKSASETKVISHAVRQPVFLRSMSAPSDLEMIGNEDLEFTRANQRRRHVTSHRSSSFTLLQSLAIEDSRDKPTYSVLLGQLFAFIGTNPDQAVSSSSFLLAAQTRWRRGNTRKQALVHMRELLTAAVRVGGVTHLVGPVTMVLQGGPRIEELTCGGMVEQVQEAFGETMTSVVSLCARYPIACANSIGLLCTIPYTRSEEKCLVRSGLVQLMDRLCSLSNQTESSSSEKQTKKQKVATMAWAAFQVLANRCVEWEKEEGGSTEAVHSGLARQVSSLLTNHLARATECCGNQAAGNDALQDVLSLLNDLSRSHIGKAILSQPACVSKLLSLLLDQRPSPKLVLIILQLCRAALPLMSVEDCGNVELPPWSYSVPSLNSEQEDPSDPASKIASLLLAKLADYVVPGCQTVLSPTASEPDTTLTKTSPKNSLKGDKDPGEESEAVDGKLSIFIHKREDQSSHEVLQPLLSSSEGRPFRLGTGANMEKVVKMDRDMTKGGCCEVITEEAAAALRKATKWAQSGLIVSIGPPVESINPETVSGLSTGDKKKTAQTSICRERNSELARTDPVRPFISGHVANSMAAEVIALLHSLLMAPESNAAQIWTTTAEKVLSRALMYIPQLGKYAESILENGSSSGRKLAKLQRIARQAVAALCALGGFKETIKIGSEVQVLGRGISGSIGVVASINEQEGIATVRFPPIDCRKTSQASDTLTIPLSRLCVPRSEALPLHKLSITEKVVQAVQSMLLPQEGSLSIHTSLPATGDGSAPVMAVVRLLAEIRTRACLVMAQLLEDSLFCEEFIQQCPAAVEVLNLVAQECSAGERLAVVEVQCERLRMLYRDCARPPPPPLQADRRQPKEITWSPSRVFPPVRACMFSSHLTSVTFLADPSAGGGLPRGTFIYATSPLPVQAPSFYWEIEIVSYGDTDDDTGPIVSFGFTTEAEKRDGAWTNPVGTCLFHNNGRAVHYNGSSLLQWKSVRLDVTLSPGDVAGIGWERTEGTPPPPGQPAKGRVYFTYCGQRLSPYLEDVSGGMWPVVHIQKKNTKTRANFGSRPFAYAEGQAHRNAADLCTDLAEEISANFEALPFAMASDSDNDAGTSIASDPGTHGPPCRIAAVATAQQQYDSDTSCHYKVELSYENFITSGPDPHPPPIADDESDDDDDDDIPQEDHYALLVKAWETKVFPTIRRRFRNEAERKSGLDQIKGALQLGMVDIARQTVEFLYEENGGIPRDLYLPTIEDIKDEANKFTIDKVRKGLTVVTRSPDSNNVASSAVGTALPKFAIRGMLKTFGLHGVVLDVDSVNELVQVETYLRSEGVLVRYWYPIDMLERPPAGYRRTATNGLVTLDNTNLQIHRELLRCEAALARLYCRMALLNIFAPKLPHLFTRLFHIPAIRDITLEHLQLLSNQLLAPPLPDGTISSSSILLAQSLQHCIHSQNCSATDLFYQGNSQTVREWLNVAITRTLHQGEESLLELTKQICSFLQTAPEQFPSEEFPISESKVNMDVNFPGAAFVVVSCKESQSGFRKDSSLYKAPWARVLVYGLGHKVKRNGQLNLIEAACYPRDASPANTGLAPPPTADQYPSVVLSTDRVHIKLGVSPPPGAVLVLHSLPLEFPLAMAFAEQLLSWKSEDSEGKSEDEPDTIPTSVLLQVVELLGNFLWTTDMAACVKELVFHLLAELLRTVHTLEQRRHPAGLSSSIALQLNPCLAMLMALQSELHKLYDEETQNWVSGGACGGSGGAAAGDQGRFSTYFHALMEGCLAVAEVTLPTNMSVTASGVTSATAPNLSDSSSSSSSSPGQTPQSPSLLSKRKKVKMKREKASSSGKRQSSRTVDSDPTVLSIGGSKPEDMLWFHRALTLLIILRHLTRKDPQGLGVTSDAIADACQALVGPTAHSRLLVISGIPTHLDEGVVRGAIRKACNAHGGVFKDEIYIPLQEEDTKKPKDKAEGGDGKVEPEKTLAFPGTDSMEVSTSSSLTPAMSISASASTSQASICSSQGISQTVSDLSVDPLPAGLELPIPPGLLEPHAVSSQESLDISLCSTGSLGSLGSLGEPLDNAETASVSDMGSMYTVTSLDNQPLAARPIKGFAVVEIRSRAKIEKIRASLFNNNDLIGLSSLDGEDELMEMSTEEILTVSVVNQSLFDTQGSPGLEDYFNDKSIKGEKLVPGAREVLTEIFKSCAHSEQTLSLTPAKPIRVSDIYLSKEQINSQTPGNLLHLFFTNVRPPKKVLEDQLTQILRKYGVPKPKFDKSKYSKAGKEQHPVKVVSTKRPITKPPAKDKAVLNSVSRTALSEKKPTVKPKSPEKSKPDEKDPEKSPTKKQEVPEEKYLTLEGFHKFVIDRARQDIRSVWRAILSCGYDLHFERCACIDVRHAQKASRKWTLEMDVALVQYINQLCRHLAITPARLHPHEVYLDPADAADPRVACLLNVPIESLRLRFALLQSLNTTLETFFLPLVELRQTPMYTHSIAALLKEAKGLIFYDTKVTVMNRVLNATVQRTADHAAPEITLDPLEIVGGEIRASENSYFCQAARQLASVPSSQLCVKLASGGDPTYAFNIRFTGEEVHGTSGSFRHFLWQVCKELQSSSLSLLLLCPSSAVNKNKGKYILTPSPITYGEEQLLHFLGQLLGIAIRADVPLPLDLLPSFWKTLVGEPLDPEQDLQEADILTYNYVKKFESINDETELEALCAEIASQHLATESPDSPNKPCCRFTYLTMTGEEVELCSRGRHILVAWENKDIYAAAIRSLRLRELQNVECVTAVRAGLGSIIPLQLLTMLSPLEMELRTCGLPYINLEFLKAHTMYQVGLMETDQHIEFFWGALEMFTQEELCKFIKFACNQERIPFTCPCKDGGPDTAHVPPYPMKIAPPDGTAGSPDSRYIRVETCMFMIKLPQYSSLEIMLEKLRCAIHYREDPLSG
UniProt Q969U7: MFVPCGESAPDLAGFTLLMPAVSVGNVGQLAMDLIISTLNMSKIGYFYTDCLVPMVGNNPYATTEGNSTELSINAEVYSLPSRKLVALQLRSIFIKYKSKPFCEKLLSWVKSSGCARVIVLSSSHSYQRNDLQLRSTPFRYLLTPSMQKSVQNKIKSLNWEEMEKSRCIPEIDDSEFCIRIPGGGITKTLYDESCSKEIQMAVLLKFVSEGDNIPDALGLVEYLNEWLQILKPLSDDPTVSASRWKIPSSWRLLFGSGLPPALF
UniProt O94952: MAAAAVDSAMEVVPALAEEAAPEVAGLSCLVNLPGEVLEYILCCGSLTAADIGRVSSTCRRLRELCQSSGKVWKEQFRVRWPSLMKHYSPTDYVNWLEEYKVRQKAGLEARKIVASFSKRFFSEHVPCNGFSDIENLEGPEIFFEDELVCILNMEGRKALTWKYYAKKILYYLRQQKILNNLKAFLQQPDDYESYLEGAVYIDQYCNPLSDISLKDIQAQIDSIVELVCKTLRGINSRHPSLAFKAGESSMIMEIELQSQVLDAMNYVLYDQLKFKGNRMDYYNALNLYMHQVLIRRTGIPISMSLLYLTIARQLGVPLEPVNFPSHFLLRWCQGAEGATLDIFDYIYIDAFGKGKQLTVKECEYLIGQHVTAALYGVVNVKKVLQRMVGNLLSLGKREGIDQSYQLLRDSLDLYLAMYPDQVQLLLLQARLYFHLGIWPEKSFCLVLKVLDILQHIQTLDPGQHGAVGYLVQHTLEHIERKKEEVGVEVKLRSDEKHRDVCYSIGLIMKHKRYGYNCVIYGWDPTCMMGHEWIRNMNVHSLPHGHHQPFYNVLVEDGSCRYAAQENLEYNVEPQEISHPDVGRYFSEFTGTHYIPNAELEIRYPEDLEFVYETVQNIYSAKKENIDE

Target	NP40-soluble protein abundance (concentration: 0.1mM)	NP40-soluble protein abundance (concentration: 0.5mM)	NP40-soluble protein abundance (concentration: 1mM)	NP40-soluble protein abundance (concentration: 2mM)	NP40-soluble protein abundance (concentration: 4mM)	NP40-soluble protein abundance (concentration: 6mM)	NP40-soluble protein abundance (concentration: 8mM)	NP40-soluble protein abundance (concentration: 10mM)
H7C0Q6 and related entries (UniProt Q9C037)	1.08 ± 0.076	1.037 ± 0.0073	1.03 ± 0.068	0.998 ± 0.052	0.968 ± 0.069	0.981 ± 0.063	0.979 ± 0.07	0.918 ± 0.074
J3KTE4 and related entries (UniProt P84098)	0.99 ± 0.035	1.06 ± 0.03	1.07 ± 0.056	1.05 ± 0.071	0.976 ± 0.12	0.962 ± 0.093	0.908 ± 0.15	1.02 ± 0.19
K7ERF1 and related entries (UniProt Q9UBQ5)	0.991 ± 0.042	0.998 ± 0.068	1.01 ± 0.091	1.06 ± 0.1	1.16 ± 0.2	1.28 ± 0.18	1.34 ± 0.21	1.53 ± 0.28
J3KSS1 and related entries (UniProt Q8TF05)	1.04 ± 0.041	1.05 ± 0.0072	1.02 ± 0.038	0.99 ± 0.038	0.98 ± 0.04	0.97 ± 0.043	0.963 ± 0.019	0.948 ± 0.024
K7EIY6 and related entries (UniProt Q9BV68)	0.911 ± 0.078	0.974 ± 0.059	1 ± 0.085	0.978 ± 0.036	0.981 ± 0.033	0.996 ± 0.042	0.96 ± 0.12	1.01 ± 0.11
J3QKK3 and related entries (UniProt O43502)	1.12 ± 0.13	1.14 ± 0.2	1.03 ± 0.074	1.04 ± 0.14	1.08 ± 0.12	0.976 ± 0.18	0.959 ± 0.094	1 ± 0.12
K4DI92 and related entries (UniProt Q6NW29)	0.97 ± 0.14	0.884 ± 0.26	0.915 ± 0.2	0.996 ± 0.15	0.957 ± 0.14	0.933 ± 0.089	0.99 ± 0.099	0.984 ± 0.2
H0Y7L2 and related entries (UniProt Q96N67)	1.05 ± 0.064	1.09 ± 0.12	1.06 ± 0.086	1.12 ± 0.11	1.14 ± 0.15	1.15 ± 0.15	1.11 ± 0.12	1.07 ± 0.076
H3BME1 and related entries (UniProt Q6PCT2)	1.03 ± 0.16	1.07 ± 0.031	1.08 ± 0.13	1.08 ± 0.085	0.986 ± 0.09	1.01 ± 0.14	0.971 ± 0.21	0.993 ± 0.14
J3QR07 and related entries (UniProt Q96MU7)	0.992 ± 0.046	1.02 ± 0.03	1.09 ± 0.017	1.09 ± 0.051	1.07 ± 0.075	1.09 ± 0.077	1.19 ± 0.16	1.32 ± 0.2
J3KPF0 (UniProt Q9Y4D8)	1.08 ± 0.021	1.1 ± 0.061	1.2 ± 0.14	1.24 ± 0.12	1.26 ± 0.18	1.23 ± 0.18	1.23 ± 0.17	1.18 ± 0.2
K7ENR6 and related entries (UniProt Q969U7)	1 ± 0.083	1.01 ± 0.056	1.02 ± 0.06	0.984 ± 0.053	0.974 ± 0.034	1 ± 0.033	0.973 ± 0.092	0.946 ± 0.042
H0YIE9 and related entries (UniProt O94952)	1.19 ± 0.045	1.03 ± 0.091	1.05 ± 0.013	1.04 ± 0.12	1.12 ± 0.014	0.978 ± 0.078	1.08 ± 0.035	0.921 ± 0.089

Shown bar-delimited: part of the list above
Target | NP40-soluble protein abundance (concentration: 0.1mM) | NP40-soluble protein abundance (concentration: 0.5mM) | NP40-soluble protein abundance (concentration: 1mM) | NP40-soluble protein abundance (concentration: 2mM) | NP40-soluble protein abundance (concentration: 4mM) | NP40-soluble protein abundance (concentration: 6mM) | NP40-soluble protein abundance (concentration: 8mM) | NP40-soluble protein abundance (concentration: 10mM)
H3BME1 and related entries (UniProt Q6PCT2) | 1.03 ± 0.16 | 1.07 ± 0.031 | 1.08 ± 0.13 | 1.08 ± 0.085 | 0.986 ± 0.09 | 1.01 ± 0.14 | 0.971 ± 0.21 | 0.993 ± 0.14
J3QR07 and related entries (UniProt Q96MU7) | 0.992 ± 0.046 | 1.02 ± 0.03 | 1.09 ± 0.017 | 1.09 ± 0.051 | 1.07 ± 0.075 | 1.09 ± 0.077 | 1.19 ± 0.16 | 1.32 ± 0.2
